{
  "source": "paper PMC11066524",
  "about": "“The molecular determinants of classical pathway complement inhibition by OspEF-related proteins of Borrelia burgdorferi” (The Journal of Biological Chemistry, 2024)",
  "binders": {"B1": {"name": "full-length activated human C1s (enzyme, UniProt P09871 16-437; P09871 438-688)", "chain 1": "EPTMYGEILSPNYPQAYPSEVEKSWDIEVPEGYGIHLYFTHLDIELSENCAYDSVQIISGDTEEGRLCGQRSSNNPHSPIVEEFQVPYNKLQVIFKSDFSNEERFTGFAAYYVATDINECTDFVDVPCSHFCNNFIGGYFCSCPPEYFLHDDMKNCGVNCSGDVFTALIGEIASPNYPKPYPENSRCEYQIRLEKGFQVVVTLRREDFDVEAADSAGNCLDSLVFVAGDRQFGPYCGHGFPGPLNIETKSNALDIIFQTDLTGQKKGWKLRYHGDPMPCPKEDTPNSVWEPAKAKYVFRDVVQITCLDGFEVVEGRVGATSFYSTCQSNGKWSNSKLKCQPVDCGIPESIENGKVEDPESTLFGSVIRYTCEEPYYYMENGGGGEYHCAGNGSWVNEVLGPELPKCVPVCGVPREPFEEKQR", "chain 2": "IIGGSDADIKNFPWQVFFDNPWAGGALINEYWVLTAAHVVEGNREPTMYVGSTSVQTSRLAKSKMLTPEHVFIHPGWKLLEVPEGRTNFDNDIALVRLKDPVKMGPTVSPICLPGTSSDYNLMDGDLGLISGWGRTEKRDRAVRLKAARLPVAPLRKCKEVKVEKPTADAEAYVFTPNMICAGGEKGMDSCKGDSGGAFAVQDPNDKTKFYAAGLVSWGPQCGTYGLYTRVKNYVDWIMKTMQENSTPRED"}, "B2": {"name": "activated full-length human C1r (enzyme, UniProt P00736 18-705)", "chain": "SIPIPQKLFGEVTSPLFPKPYPNNFETTTVITVPTGYRVKLVFQQFDLEPSEGCFYDYVKISADKKSLGRFCGQLGSPLGNPPGKKEFMSQGNKMLLTFHTDFSNEENGTIMFYKGFLAYYQAVDLDECASRSKSGEEDPQPQCQHLCHNYVGGYFCSCRPGYELQEDTHSCQAECSSELYTEASGYISSLEYPRSYPPDLRCNYSIRVERGLTLHLKFLEPFDIDDHQQVHCPYDQLQIYANGKNIGEFCGKQRPPDLDTSSNAVDLLFFTDESGDSRGWKLRYTTEIIKCPQPKTLDEFTIIQNLQPQYQFRDYFIATCKQGYQLIEGNQVLHSFTAVCQDDGTWHRAMPRCKIKDCGQPRNLPNGDFRYTTTMGVNTYKARIQYYCHEPYYKMQTRAGSRESEQGVYTCTAQGIWKNEQKGEKIPRCLPVCGKPVNPVEQRQRIIGGQKAKMGNFPWQVFTNIHGRGGGALLGDRWILTAAHTLYPKEHEAQSNASLDVFLGHTNVEELMKLGNHPIRRVSVHPDYRQDESYNFEGDIALLELENSVTLGPNLLPICLPDNDTFYDLGLMGYVSGFGVMEEKIAHDLRFVRLPVANPQACENWLRGKNRMDVFSQNMFCAGHPSLKQDACQGDSGGVFAVRDPNTDRWVATGIVSWGIGCSRGYGFYTKVLNYVDWIKKEMEEED"}},
  "key": {"[1]": {"target": "ElpQ_(Y240A) (Borrelia burgdorferi strain B31) (UniProt Q9S035)", "experiment": "SPR; kinetic fit (K_(D, kin)), 1:1 Langmuir; ElpQ/ElpB proteins amine-coupled to a CMD200 chip; activated C1s or C1r injected 0-200 nM, multicycle; HBS-T Ca2+ (10 mM Hepes pH 7.3, 140 mM NaCl, 0.005% Tween-20, 5 mM CaCl2); 30 μl/min; association 120 s (C1r 480 s), dissociation 180 s; both purified"}, "[2]": {"target": "T1, ElpQ_(Δ290-296) (Borrelia burgdorferi strain B31) (UniProt Q9S035)", "T1 sequence": "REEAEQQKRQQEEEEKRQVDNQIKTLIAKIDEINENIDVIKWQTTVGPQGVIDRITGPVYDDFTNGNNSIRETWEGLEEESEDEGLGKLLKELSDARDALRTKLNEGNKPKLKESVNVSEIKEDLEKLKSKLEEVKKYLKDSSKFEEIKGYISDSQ", "experiment": "SPR; kinetic fit (K_(D, kin)), 1:1 Langmuir; ElpQ/ElpB proteins amine-coupled to a CMD200 chip; activated C1s or C1r injected 0-200 nM, multicycle; HBS-T Ca2+ (10 mM Hepes pH 7.3, 140 mM NaCl, 0.005% Tween-20, 5 mM CaCl2); 30 μl/min; association 120 s (C1r 480 s), dissociation 180 s; both purified"}, "[3]": {"target": "T2, ElpQA4 (Borrelia burgdorferi strain B31) (UniProt Q9S035)", "T2 sequence": "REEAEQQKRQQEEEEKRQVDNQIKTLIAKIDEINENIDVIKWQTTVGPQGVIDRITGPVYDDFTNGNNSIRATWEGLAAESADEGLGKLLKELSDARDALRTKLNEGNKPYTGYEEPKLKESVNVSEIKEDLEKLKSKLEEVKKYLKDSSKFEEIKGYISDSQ", "experiment": "SPR; steady-state fit (K_(D, ss)), 1:1 model, of the same injection series as a2; ElpQ proteins amine-coupled to a CMD200 chip; activated C1s or C1r 0-200 nM; HBS-T Ca2+ (10 mM Hepes pH 7.3, 140 mM NaCl, 0.005% Tween-20, 5 mM CaCl2); both purified"}},
  "note": "No constants are given. Whether binding was seen depends on the method and setting. Some binding calls cover weakened binding; strength is not graded here.",
  "data": [
    {"binder": "B1", "values": [
      {"measurement": "binding", "setting": "[1]", "result": "no binding (tested: 200 nM (highest concentration injected))"}
    ]},
    {"binder": "B2", "values": [
      {"measurement": "binding", "setting": "[2]", "result": "no binding (tested: 200 nM (highest concentration injected))"},
      {"measurement": "binding", "setting": "[1]", "result": "no binding (tested: 200 nM (highest concentration injected))"},
      {"measurement": "binding", "setting": "[3]", "result": "binds weakly"}
    ]}
  ]
}
